# Test results taken from article PMC7819943, “Rice protein-binding microarrays: a tool to detect cis-acting elements near promoter regions in rice”.
# This is one part of the list.
# Molecular target: T1, OsSMF1 (Oryza sativa, UniProt Q6ZLB0 1-436)
# T1 sequence: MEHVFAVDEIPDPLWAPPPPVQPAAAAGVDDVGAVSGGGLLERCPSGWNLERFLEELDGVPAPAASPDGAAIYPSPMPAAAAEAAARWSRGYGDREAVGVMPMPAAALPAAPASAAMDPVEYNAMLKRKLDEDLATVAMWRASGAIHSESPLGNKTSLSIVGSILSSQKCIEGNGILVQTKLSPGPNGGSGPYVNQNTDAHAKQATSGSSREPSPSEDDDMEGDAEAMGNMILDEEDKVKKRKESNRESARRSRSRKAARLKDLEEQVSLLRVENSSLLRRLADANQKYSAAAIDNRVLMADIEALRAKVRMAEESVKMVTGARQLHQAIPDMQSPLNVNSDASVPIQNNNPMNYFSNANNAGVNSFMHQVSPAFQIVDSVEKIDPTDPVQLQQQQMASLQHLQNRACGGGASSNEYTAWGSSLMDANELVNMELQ
# Assay: protein-binding microarray (RPBM); PBS, 2% BSA, 51.3 ng/ul salmon testes DNA, 50 uM zinc acetate, 200 nM TF, 25 C, 1 h; high values mean tight binding
# Conditions: protein: recombinant; tags: N-terminal polyhistidine and DsRed monomer fusion (pET32a); chain copies: 2; label: CyDye5-dUTP incorporated in the synthesized complementary strand; 3' TTTTT single-stranded linker to array surface; dsDNA, one strand shown
# How it was run: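 In PBS with 2% BSA, salmon testes DNA and 50 µM zinc acetate, 200 nM protein was incubated on a custom Agilent array at 25 °C for 1 h and then washed off. The array had been made double-stranded by primer extension with Cy5-dUTP and blocked with 2% BSA. The proteins were transcription factors fused N-terminally to polyhistidine and DsRed, expressed in E. coli BL21-CodonPlus and purified on Ni–NTA. The binding signal is per-feature fluorescence intensity (arbitrary units) from an Axon 4000B scanner.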
row,Sequence,binding signal
1,AACACGTCTGACGGTGTGAGGCAGCAGCCGATGTTCTCACCGGAGTCACCTAGTGCAG,4870 fluorescence intensity (a.u.)
2,GTCTTTTGATGCGACGCGATGTGACTCGCCCGACCCAACTCGGAGTCACCTAGTGCAG,3780 fluorescence intensity (a.u.)
3,GCGGATTCCCGTGCAAATAGGGCCTCCACGTGGCGCGGCGCGGAGTCACCTAGTGCAG,17300 fluorescence intensity (a.u.)
4,TTCTAGCTTTTCTGTCACATGTCACATCGTTCCAATTTCACGGAGTCACCTAGTGCAG,5280 fluorescence intensity (a.u.)
5,ATATTTTGAATCTGTAACTTAGAATACGTGTTCTGATGCCCGGAGTCACCTAGTGCAG,4660 fluorescence intensity (a.u.)
6,CTACAGAACACCTAGACCTTGCCGCCGTCACCACTAGATCCGGAGTCACCTAGTGCAG,5850 fluorescence intensity (a.u.)
7,ACGCCGCTCGCGCCCGCGGAGGGGAGGGGAGGGGAAGATCCGGAGTCACCTAGTGCAG,4510 fluorescence intensity (a.u.)
8,CCCGAGCGCCACGCCGGACGCCATGAGCAGGGTCGGCGACCGGAGTCACCTAGTGCAG,3620 fluorescence intensity (a.u.)
9,TATAAACACCAATACACACACGTGGTGACGTCAGATATTACGGAGTCACCTAGTGCAG,6650 fluorescence intensity (a.u.)
10,TAAATTTCAAATTCGTGCCACATAGGTCCTTTTCCTCACACGGAGTCACCTAGTGCAG,4670 fluorescence intensity (a.u.)
11,CGCTCTTGGCCGTTGGGAGCCACGTCAGCCGGCGGCCTCCCGGAGTCACCTAGTGCAG,18900 fluorescence intensity (a.u.)
12,ACCGGGTTCCACATGTCATACACACATTACGTCTTGGAGTCGGAGTCACCTAGTGCAG,4450 fluorescence intensity (a.u.)
13,GGGTGGGAGGGAGGGAGTACATGGTAAGGCCATTCAACAGCGGAGTCACCTAGTGCAG,4870 fluorescence intensity (a.u.)
14,AGAGATGCGTGTGTAGGCGGCGGGGAGGGGAGGGCTGTGACGGAGTCACCTAGTGCAG,5530 fluorescence intensity (a.u.)
15,CCGACCTGACCTGCGCCGTCTGCGGCATCACGTCGACCGGCGGAGTCACCTAGTGCAG,3400 fluorescence intensity (a.u.)
16,ACAGTAGCTGTGGATTGAATGGCAGACCCAACTTTAATTGCGGAGTCACCTAGTGCAG,4680 fluorescence intensity (a.u.)
17,TTTATCATTTCTGTCCACAAACACATCATGAGTTTCTACACGGAGTCACCTAGTGCAG,3520 fluorescence intensity (a.u.)
18,TCGGCATGGGCGGTGGCGCTGGCGCGTCCTCCGATCCCGTCGGAGTCACCTAGTGCAG,19900 fluorescence intensity (a.u.)
19,GAAACCAATCACGCGTCGTTACGTGTCTTCGTAGGAACGACGGAGTCACCTAGTGCAG,3860 fluorescence intensity (a.u.)
20,CTTAATCCTCTCTTCCTTCCATCCAAACTTGCCACCTATGCGGAGTCACCTAGTGCAG,4430 fluorescence intensity (a.u.)
21,ACCCAATGGTTCCCGCTGCCGCGTGCAGGCGATGCGCTTCCGGAGTCACCTAGTGCAG,3240 fluorescence intensity (a.u.)

row,Sequence,binding signal
1,CCGCCAACCCACGCTCTATCCACTCACACACACTCTCCTCCGGAGTCACCTAGTGCAG,3260 fluorescence intensity (a.u.)
2,TTTGCCTATGTGGGTTTGAAATTTCTCATCAAATTGGTTCCGGAGTCACCTAGTGCAG,3260 fluorescence intensity (a.u.)
3,AGCACGGCCGCGGCCACATTGCCCACTGCCTCGGCGGCGCCGGAGTCACCTAGTGCAG,3760 fluorescence intensity (a.u.)
4,CCTCATGACCTACCGCCATCACTCGAGTCATTTAGCTTCTCGGAGTCACCTAGTGCAG,4050 fluorescence intensity (a.u.)
5,AATCTCATCTCATCAATGGTGTCGCTATTACAGCACGTGGCGGAGTCACCTAGTGCAG,3740 fluorescence intensity (a.u.)
6,AAAGAAAATGTTGACTGGATTGACACGCGTACGCTATGTACGGAGTCACCTAGTGCAG,6810 fluorescence intensity (a.u.)
7,GAACATGGCGTTGAGCAGGATGTTGCCGCAGACCTTGACGCGGAGTCACCTAGTGCAG,3160 fluorescence intensity (a.u.)
8,CAGAAAGCACCACGTCACCGTCGTCTACAGAGCTGCATCGCGGAGTCACCTAGTGCAG,19100 fluorescence intensity (a.u.)
9,TCGTGAGCAAGCGGAGTCCGAGTCCGAGTCTGACGCTTGTCGGAGTCACCTAGTGCAG,3220 fluorescence intensity (a.u.)
10,TCCTACGTAGCGGCTGAGTCAACGTAGGACCCATGTGGACCGGAGTCACCTAGTGCAG,5980 fluorescence intensity (a.u.)
11,AGGAGCAGGTACATTGTGTGGCTATATAAGCGAGGTGGCTCGGAGTCACCTAGTGCAG,3160 fluorescence intensity (a.u.)
12,GGTCTTATCCCACGTAGCAAGTTGATTTGGTCATCATCCACGGAGTCACCTAGTGCAG,6110 fluorescence intensity (a.u.)
13,TTGTGTTTTAGACAATTGGTCATGTACTCATGTTTATCAGCGGAGTCACCTAGTGCAG,3270 fluorescence intensity (a.u.)
14,GACGATCGTGACAACAGCTCGTGAGTCATTGGAACCTTCCCGGAGTCACCTAGTGCAG,5230 fluorescence intensity (a.u.)
15,AACATGAACGCCACCGACACGGAAGCATGTCCTGTACCATCGGAGTCACCTAGTGCAG,4050 fluorescence intensity (a.u.)
16,GAAAACCAACTCAATAGACATATATCAGTCGACCCCTCTCCGGAGTCACCTAGTGCAG,22200 fluorescence intensity (a.u.)
17,TGGGGTATGTGTGCTTGGTTATGTGTGCATCTTAGTTATACGGAGTCACCTAGTGCAG,3860 fluorescence intensity (a.u.)
18,AATTTGTGTACTACTCGTGATCGATCCATTTGGCCATTAACGGAGTCACCTAGTGCAG,11700 fluorescence intensity (a.u.)
19,ATACGCCGACGGATACGGATACGCTCCGATACATATCCCACGGAGTCACCTAGTGCAG,23700 fluorescence intensity (a.u.)
20,AACTCTATCGCTACGTGTATCACTGCGTGTCGAAGGATAACGGAGTCACCTAGTGCAG,4270 fluorescence intensity (a.u.)
21,CGAGGTGAGGCGGAGGGGAGGCAGAGGGGTAGAGGAGGGTCGGAGTCACCTAGTGCAG,5260 fluorescence intensity (a.u.)

# For convenience, some entries already given:
row,Sequence,binding signal
12,ACCGGGTTCCACATGTCATACACACATTACGTCTTGGAGTCGGAGTCACCTAGTGCAG,4450 fluorescence intensity (a.u.)
13,GGGTGGGAGGGAGGGAGTACATGGTAAGGCCATTCAACAGCGGAGTCACCTAGTGCAG,4870 fluorescence intensity (a.u.)
14,AGAGATGCGTGTGTAGGCGGCGGGGAGGGGAGGGCTGTGACGGAGTCACCTAGTGCAG,5530 fluorescence intensity (a.u.)
